Measured values: US20090022712A1, “Compositions and Methods for Inhibiting Leukocyte Function” (UNIVERSITY OF VIRGINIA PATENT FOUNDATION, priority 2006, published 2009)
Not every detail of the peptide structures is certain; ends, links or a residue may be inferred. Where a SMILES comes first, the peptide text is derived from it.

Experiments:
[1] = system: LPS-induced PMN migration into the lung; assay: Murine model of acute lung injury: LPS-induced PMN trafficking in the lung
Human PMNs [2] = assay: PMN adhesion assay on fibrinogen-coated wells; assay type: cell-based; conditions: peptide 20 μg/ml, CXCL1 100 ng/ml, 2 hours
PMNs = assay: PMN oxidative burst (SOD-inhibitable reduction of cytochrome c); assay type: cell-based, human; conditions: for adhesion-induced oxidative burst (superoxide production): TNF-α-primed adherent PMNs, peptide 20 μg/ml, dhCB 1 μg/ml
Method: Oxidative burst of adherent PMNs was quantified by measuring the superoxide dismutase (SOD)-inhibitable reduction of cytochrome c as described (67). Briefly, PMNs (1.5×10^6/ml in HBSS-0.1% human serum albumin) were incubated in polypropylene tubes (1 hour; 37° C.) in a shaking water bath with or without the PAK peptide (20 μg/ml). PMNs were transferred to a fibrinogen-coated 96 well tissue culture plate. Cytochrome c (1.44 mg/ml) and catalase (0.062 mg/ml) (both Sigma) were added to wells with or without TNF-alpha (10 U/ml). Optical density was measured at indicated times against matched controls with SOD at 550 nm. Some PMNs were treated with dihydrocytochalasin B (dhCB) (1 μg/ml) to disrupt cell spreading on the surface (68). These samples served as negative control.

Human PMNs [3] = assay: F-actin formation in CXCL1-stimulated PMNs; assay type: cell-based; conditions: peptide 20 μg/ml
leukocyte arrest = assay: Intravital microscopy of cremaster muscle venules: CXCL1-induced leukocyte arrest; assay type: in vivo, mice; conditions: 1 mg peptide intraperitoneal, 500 ng CXCL1 i.v.

CSCC[C@H](NC(=O)[C@@H](NC(=O)[C@H](CO)NC(=O)[C@@H](NC(=O)[C@H](CC(N)=O)NC(=O)[C@H](CCCNC(=N)N)NC(=O)[C@H](CCSC)NC(=O)[C@@H]1CCCN1C(=O)[C@@H]1CCCN1C(=O)[C@H](C)NC(=O)[C@@H]1CCCN1C(=O)[C@@H]1CCCN1C(=O)[C@H](CCCCN)NC(=O)CNC(=O)[C@H](CCCNC(=N)N)NC(=O)[C@H](CCCNC(=N)N)NC(=O)[C@H](CCCNC(=N)N)NC(=O)[C@H](CCC(N)=O)NC(=O)[C@H](CCCNC(=N)N)NC(=O)[C@H](CCCNC(=N)N)NC(=O)[C@H](CCCCN)NC(=O)[C@H](CCCCN)NC(=O)[C@H](CCCNC(=N)N)NC(=O)CNC(=O)[C@@H](N)Cc1ccc(O)cc1)[C@@H](C)O)[C@@H](C)O)C(=O)O [tat-PAK peptide] (H-YGRKKRRQRRRGKPPAPPMRNTSTM-OH; N-terminus and C-terminus assumed)
PMN recruitment to the lung and the BAL ([1]; about 30 mg/kg, aerosolized LPS): inhibited | inhibition of neutrophil migration to BAL (alveolar space) ([1]; mice, LPS aerosol 30 min, peptide pretreatment): 70% | CXCL1-induced PMN adhesion to fibrinogen (Human PMNs [2]): significantly reduced | CXCL1-induced PMN adhesion to fibrinogen (Human PMNs [2]; listed as PAK inhibitory peptide): reduced cell adhesion to baseline levels | oxidative burst in cell suspension (PMNs; PMNs in suspension, data not shown): no effect | adhesion-induced oxidative burst (superoxide production) (PMNs): markedly reduced | adhesion-induced oxidative burst (superoxide production) (PMNs; listed as inhibitory PAK peptide): reduced | actin polymerization / F-actin localization (microscopy) (Human PMNs [3]; PMNs on fibronectin, CXCL1 100 ng/ml): reduced actin polymerization substantially | decrease in F-actin relative to control cells (Human PMNs [3]; flow cytometry, PMNs in suspension, CXCL1): ~30 fold | CXCL1-induced leukocyte arrest in cremaster venules (leukocyte arrest): significantly reduced
